According to patent US6699969B1, “Assays for the detection of microtubule depolymerization inhibitors” (The Regents of the University of California, priority 1998, dated 2004):
Some of these results come from one statement about several compounds together.

System: Taxol-stabilized, rhodamine-labeled microtubules
Experiment: Microscope-based microtubule severing assay
Type: biochemical
Conditions: 0.1 μM protein
Experimental: Microscope-based severing assays were performed using previously published procedures (McNally and Vale (1993) Cell, 75: 419-429), except that microtubules were immobilized by first perfusing flow cells with a bacterially expressed kinesin mutant that binds strongly to microtubules but is unable to hydrolyze ATP (K560, G234A mutant; R. Vale and E. Taylor, unpublished results). Assays were performed in 20 mM Hepes (pH 7.5), 2 mM MgCl2, 1 mM ATP with an oxygen scavenger system consisting of glucose oxidase (220 μg/ml), catalase (36 μg/ml), glucose (22.5 mM), and 2-mercaptoethanol (71.5 mM). Images were captured using a cooled, slow-scan CCD (Photometerics) and processed using Adobe Photoshop.

B1: p60: S. purpuratus katanin 60 kDa subunit, 516 a.a. AAA ATPase (SEQ ID NO: 1), baculovirus-expressed with N-terminal His(6) tag (protein, listed as Strongylocentrotus purpuratus)
chain: MSVDEICENTKMGREYALLGNYETSLVYYQGVLQQIQKLLTSVHEPQRKHQWQTIRQELSQEYEHVKNITKTLNGFKSEPAAPEPAPNHGRAAPFSHHQHAAKPAAAEPARDPDVWPPPTPVDHRPSPPYQRAARKDPPRRSEPSKPANRAPGNDRGGRGPSDRRGDARSGGGGRGGARGSDKDKNRGGKSDKDKKAPSGEEGDEKKFDPAGYDKDLVENLERDIVQRNPNVHWADIAGLTEAKRLLEEAVVLPLWMPDYFKGIRRPWKGVLMVGPPGTGKTMLAKAVATECGTTFFNVSSASLTSKYHGESEKLVRLLFEMARFYAPSTIFIDEIDSICSKRGTGSEHEASRRVKSELLIQMDGVSGPSAGEESSKMVMVLAATNFPWDIDEALRRRLEKRIYIPLPEIDGREQLLRINLKEVPLADDIDLKSIAEKMDGYSGADITNVCRDASMMAMRRRIQGLRPEEIRHIPKEELNQPSTPADFLLALQKVSKSVGKEDLVKYMAWMEEFGSV
modifications: N-terminal His6 tag; katanin p60 subunit
  time until broken microtubules were observed: ≤ 1 min
